Laboratory results: PubChem BioAssay AID2685 (National Center for Advancing Translational Sciences (NCATS), 2010)
The list shows a part of the results. These are further read-outs of the screen, such as a control signal, another cell line or another target. No call is given for them. Most of these compounds were active or inconclusive in the main read-out, so they are no random draw. Potencies come from curve fits of mixed quality, noted in brackets.

Experiment: qHTS Assay for Lipid Storage Modulators in Drosophila S3 Cells;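 on cell number change: cells counted by Cell Tracker Red CMTPX staining in the red channel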
Settings: BODIPY lipid droplet fluorescence, 18-24 h; for cell number change: measured here: cell count max response, cells fed with added oleic acid
Procedure, shortened: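 Laser-scanning cytometry quantifies lipid droplet accumulation (500–530 nm total intensity; droplet/cell object ratio) in oleic acid-fed (400 uM added) Drosophila S3 cells treated with a concentration series. 20 uM Triacsin C defined 100% inhibition.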

[1] = measured here: cell number channel AC50, cells fed with added oleic acid
[2] = measured here: lipid fluorescence (Fed channel) AC50, cells fed with added oleic acid

SMILES	cell number change [%]	AC50 [1]	AC50 [2]
O=C(COC(=O)/C=C/c1cccc(Cl)c1)Nc1cccc(S(=O)(=O)NC2=NCCC2)c1	32.7	1.46 µM [rising, full curve]	29.1 µM [rising, partial curve, poor fit]
CC(C)Cn1c(N)c(-c2nc(C(C)C)c(C(=O)c3ccccc3F)s2)c(=O)n(C)c1=O	24.6	–	–
O=C(Nc1ccccc1)NC1(C(=O)N2CCN(c3ncccn3)CC2)CCCCC1	-2.16	0.731 µM [falling, full curve]	–
COc1ccc(COC(=O)C2CCN(S(=O)(=O)c3ccc(OC)c(OC)c3)CC2)cc1	7.15	–	18.4 µM [rising, partial curve, poor fit]
O=C(COc1ccccc1)N1CCN=C1SCc1ccccc1	-8.77	0.731 µM [falling, single point]	0.731 µM [falling, single point]
CCCN(CCC)S(=O)(=O)c1ccc(C(=O)Nc2c(C)n(C)n(-c3ccccc3)c2=O)cc1	-18.3	0.00461 µM [falling, full curve, poor fit]	0.00517 µM [falling, full curve, poor fit]
COc1ccc(C)cc1NC(=O)CSc1nnc(-c2ccco2)n1Cc1ccco1	103	0.651 µM [rising, full curve]	3.26 µM [rising, partial curve]
CN1CCN(c2ccc(NC(=O)c3cccc(OCc4ccccc4)c3)cc2)CC1	119	–	29.1 µM [rising, single point]
CC1=NN(C(N)=S)C(=O)C1N=Nc1ccc(F)cc1 (centres undefined)	15.3	–	29.1 µM [rising, partial curve, poor fit]
C=C(C)C(=O)OCCCCCCOc1ccc(C(=O)O)cc1	8.36	–	20.6 µM [falling, partial curve]
Clc1ccc(C2=Nn3c(nnc3-c3n[nH]c4c3CCC4)SC2)cc1Cl	-56.7	18.4 µM [falling, single point]	29.1 µM [falling, single point]
Cc1ccc(CNC(=O)C2CCCN(S(C)(=O)=O)C2)cc1 (centres undefined)	6.82	–	–
COc1cc(CNC(=O)c2cnc(C)cn2)cc(OC)c1	11.4	–	–
CCOC(=O)C1=C(C)NC(=S)N(C=O)C1c1ccccc1 (centres undefined)	19.5	0.146 µM [rising, full curve, poor fit]	0.651 µM [rising, single point]
CCOc1ccc(N2CC(C(=O)NCCc3c[nH]c4ccc(C)cc34)CC2=O)cc1 (centres undefined)	-6.3	–	–
Cc1ccc(S(=O)(=O)NCc2ccc(C(=O)N3CCN(c4ccccc4)CC3)cc2)cc1	-39.4	11.6 µM [falling, partial curve]	5.17 µM [falling, partial curve]
c1ccc2[nH]c(-c3nc4ccccc4[nH]3)nc2c1	-53.6	32.6 µM [falling, single point]	20.6 µM [falling, single point]
CCC(C)[C@H](NC(=O)NCCC1=CCCCC1)C(=O)O (some centres undefined)	-16.4	–	0.259 µM [falling, full curve, poor fit]
COc1ccc(-c2nn(-c3ccccc3)cc2C(=O)N(C)CC(=O)Nc2cccc(F)c2)cc1	5.36	–	–

SMILES	cell number change [%]	AC50 [1]	AC50 [2]
O=C(CNS(=O)(=O)c1ccccc1)NCC(=O)OCc1ccc(Cl)cc1	-11	–	0.116 µM [falling, full curve]
CC1(C)CC(=O)C2=C(C1)O[C@@]1(c3ccsc3)Cc3cc(C#N)ccc3C2O1	8.4	0.106 µM [rising, partial curve, poor fit]	–
C/C(=N\O)C(=O)NCc1ccncc1	0.284	–	0.103 µM [falling, full curve, poor fit]
CN1CCc2c(OCC(=O)NC3CCCCC3)cccc2C1=O	-4.74	6.51 µM [rising, single point]	–
O=C1[C@@H]2Cc3c([nH]c4ccccc34)C(c3cccc(Br)c3)N2C(=O)CN1C1CCN(Cc2ccccc2)CC1 (some centres undefined)	-41.9	20.6 µM [falling, single point]	29.1 µM [falling, partial curve, poor fit]
Cc1ccc(S(=O)(=O)NCCC(=O)Nc2ncccc2O)cc1C	24.5	–	–
COc1ccc(CN2CCN(C(=O)Cn3nc(C)n4cccc4c3=O)CC2)c(OC)c1OC	-13.9	–	6.51 µM [rising, single point]
CC(=O)c1cccc(NC(=O)C2CCN(C(=O)c3cccs3)CC2)c1	-2.56	–	–
O=C(Cc1sc(Nc2ccccc2)nc1-c1ccccc1)NCc1ccccc1	-2.88	–	0.0366 µM [rising, full curve, poor fit]
CN(c1ccccc1)S(=O)(=O)c1ccc(C(=O)Nc2nnc(C3CC3)s2)cc1	-3.7	–	0.146 µM [falling, full curve, poor fit]
CSc1nc(-c2ccccc2)nc(N2CCN(C)CC2)c1C(C)=O	-15.7	–	0.259 µM [rising, full curve]
CC(=O)N[C@@H](Cc1c[nH]c2ccccc12)C(=O)OCC(=O)Nc1ccc(Cl)c(S(=O)(=O)N(C)C)c1	16.5	–	29.1 µM [rising, single point]
CN1CCN(S(=O)(=O)c2ccc(C(F)(F)F)cc2)C(c2ccccc2)C1 (centres undefined)	2.75	–	0.731 µM [rising, single point]
CCOC(=O)C1=C(C)NC2=C(C(=O)C(C(=O)OCC)C(c3ccc(OC)cc3)C2)C1c1ccccn1 (centres undefined)	-32.4	32.6 µM [falling, single point]	1.16 µM [falling, partial curve]
CCn1c(=O)n(CC)c2cc(S(=O)(=O)Nc3cc(C)cc(C)c3C#N)ccc21	-2.16	1.84 µM [rising, partial curve]	–
CCC(/C=C1\Sc2ccc(OC)cc2N1CC)=C\c1sc2ccc(OC)cc2[n+]1CCCS(=O)(=O)[O-]	-61.7	18.4 µM [falling, single point]	18.4 µM [falling, single point]
COc1ccc([N+](=O)[O-])cc1C(=O)Nc1ccc(OCC(=O)N2CCOCC2)cc1	–	3.66 µM [rising, single point]	5.17 µM [rising, partial curve]
Cc1ccc(Cl)cc1NC(=O)c1ocnc1C	4.13	–	7.31 µM [falling, single point]
CCCNC(=O)c1ccc(Cl)c(Cl)c1	-18.2	–	32.6 µM [falling, single point]

Grouped by structure: the compounds so far containing four or more nitrogen atoms (14)
SMILES	cell number change [%]	AC50 [1]	AC50 [2]
CC(C)Cn1c(N)c(-c2nc(C(C)C)c(C(=O)c3ccccc3F)s2)c(=O)n(C)c1=O	24.6	–	–
O=C(Nc1ccccc1)NC1(C(=O)N2CCN(c3ncccn3)CC2)CCCCC1	-2.16	0.731 µM [falling, full curve]	–
CCCN(CCC)S(=O)(=O)c1ccc(C(=O)Nc2c(C)n(C)n(-c3ccccc3)c2=O)cc1	-18.3	0.00461 µM [falling, full curve, poor fit]	0.00517 µM [falling, full curve, poor fit]
COc1ccc(C)cc1NC(=O)CSc1nnc(-c2ccco2)n1Cc1ccco1	103	0.651 µM [rising, full curve]	3.26 µM [rising, partial curve]
CC1=NN(C(N)=S)C(=O)C1N=Nc1ccc(F)cc1 (centres undefined)	15.3	–	29.1 µM [rising, partial curve, poor fit]
Clc1ccc(C2=Nn3c(nnc3-c3n[nH]c4c3CCC4)SC2)cc1Cl	-56.7	18.4 µM [falling, single point]	29.1 µM [falling, single point]
c1ccc2[nH]c(-c3nc4ccccc4[nH]3)nc2c1	-53.6	32.6 µM [falling, single point]	20.6 µM [falling, single point]
COc1ccc(-c2nn(-c3ccccc3)cc2C(=O)N(C)CC(=O)Nc2cccc(F)c2)cc1	5.36	–	–
O=C1[C@@H]2Cc3c([nH]c4ccccc34)C(c3cccc(Br)c3)N2C(=O)CN1C1CCN(Cc2ccccc2)CC1 (some centres undefined)	-41.9	20.6 µM [falling, single point]	29.1 µM [falling, partial curve, poor fit]
COc1ccc(CN2CCN(C(=O)Cn3nc(C)n4cccc4c3=O)CC2)c(OC)c1OC	-13.9	–	6.51 µM [rising, single point]
CN(c1ccccc1)S(=O)(=O)c1ccc(C(=O)Nc2nnc(C3CC3)s2)cc1	-3.7	–	0.146 µM [falling, full curve, poor fit]
CSc1nc(-c2ccccc2)nc(N2CCN(C)CC2)c1C(C)=O	-15.7	–	0.259 µM [rising, full curve]
CC(=O)N[C@@H](Cc1c[nH]c2ccccc12)C(=O)OCC(=O)Nc1ccc(Cl)c(S(=O)(=O)N(C)C)c1	16.5	–	29.1 µM [rising, single point]
CCn1c(=O)n(CC)c2cc(S(=O)(=O)Nc3cc(C)cc(C)c3C#N)ccc21	-2.16	1.84 µM [rising, partial curve]	–

More compounds follow.

SMILES	cell number change [%]	AC50 [1]	AC50 [2]
COc1ccc(/C=C2\SC(=O)N(CCC(=O)NC3CCS(=O)(=O)C3)C2=O)cc1 (centres undefined)	2.83	–	–
CC(C)CCNS(=O)(=O)c1ccc(-c2ccc(S(=O)(=O)NCCC(C)C)cc2)cc1	-28.7	–	16.4 µM [falling, partial curve]
Cc1cccc(-n2ncc3c2CCCC3NC(=O)C2CCOCC2)c1C (centres undefined)	-17.3	–	–
O=C(OCC(=O)N(c1ccccc1)C1CCCCC1)c1ccc(CO)cc1	8.08	–	1.3 µM [rising, partial curve]
CCn1c(C)c(C2=CCN(S(=O)(=O)c3ccccc3)CC2)c2ccccc21	–	–	29.1 µM [rising, single point]
CCCCC(=O)Nc1c2c(nn1-c1ccc(C)cc1)CS(=O)(=O)C2	24.5	–	11.6 µM [rising, single point]
CCOC(=O)c1cc(Sc2ccccc2N)cc(C(=O)OCC)n1	-34.8	29.1 µM [falling, single point]	–
COc1ccc(/C=C/C(=O)c2c(O)ccc3c(C)cc(=O)oc23)cc1	-8.15	–	16.4 µM [falling, single point]
O=P(Cc1ccncc1)(c1ccccc1)c1ccccc1	30.1	8.2 µM [rising, partial curve]	–
Cc1ccc(C)c(NC(=O)c2cc(S(=O)(=O)N3CCCCC3)c[nH]2)c1	11.7	–	0.082 µM [falling, full curve, poor fit]
Cn1c(=O)c2c(ncn2CCOc2ccc(Br)cc2)n(C)c1=O	-38.9	0.291 µM [falling, full curve, poor fit]	–
O=C(c1ccccc1)N(Cc1ccccc1)c1ccccn1	1.64	–	–
CCN1CCN(CC(=O)c2ccc(OC)cc2)CC1	-40.7	–	0.0206 µM [falling, full curve, poor fit]
COC(=O)c1ccccc1NC(=O)c1ccccc1N(C)S(C)(=O)=O	–	3.26 µM [rising, single point]	2.91 µM [rising, partial curve]
COc1cccc(-n2nnnc2SCC(=O)c2ccc(NC(C)=O)cc2)c1	55.4	10.3 µM [rising, partial curve]	0.58 µM [rising, partial curve]
COC(=O)c1c(-c2ccc(C)cc2)csc1NC(=O)Cc1ccc(OC)c(OC)c1	28.1	0.58 µM [rising, full curve, poor fit]	2.31 µM [rising, partial curve]
Cc1ccc(S(=O)(=O)CCC(=O)OCC(=O)NCC(=O)Nc2c(C)cc(C)cc2C)cc1	43.5	32.6 µM [rising, partial curve, poor fit]	–
NS(=O)(=O)c1ccc(CNC(=O)c2cc(-c3cccnc3)nc3ccc(Cl)cc23)cc1	48.4	1.84 µM [rising, partial curve, poor fit]	–
